In patent US20090123469A1:
No constants are given. Whether binding was seen depends on the method and setting. Some entries that bind do so weakly or less than the wild type.

Biological target: cynomolgus factor B (cynomolgus)
Assay: hybridoma screen of 400 clones; method not described

B1: anti-factor B antibody 1F7 (antibody, human IgG1, V domains shown)
VH: QIQLVQSGPELKKPGETVKISCKASGYTFTNYGMNWVKQAPGKGLKWMGWIHTYTGKPTHADDFKGRFAFSLETSASTAYLQISNLKNEDMATYFCARGSLSTAMDYWGQGTTVTVSS
VL: DIVLTQSPASLAVSLGQRATISCKASQSVDYDGDNYMNWYQQTSGQPPKFLISGASNLESGIPARFSGSGSGTDFTLNIHPVEEEDAATYYCQQSNEDPWTFGGGTKLEIKR
binding: binds
